Test: In vivo pharmacokinetics and brain partition study
Conditions: rat, brain/plasma; rats, fasted, single 1 mg/kg iv dose, at 1 and 4 hours; read-out: brain/plasma ratio
Protocol: single 1 mg/kg iv dose administered in rats under fasted conditions plasma concentrations determined at 10 time points (2 mins -24 hrs) brain partition ratio determined at 1 and 4 hours

CN1CC[C@]23c4c5ccc(O)c4O[C@H]2[C@@H](O)C=C[C@H]3[C@H]1C5 [morphine, reference compound]
Kp at 4 h: ≤ 1

From patent publication US20120149900A1, “FLUORINE CONTAINING COMPOUNDS AND METHODS OF USE THEREOF” (priority 2009, published 2012)
